Laboratory results published in PMC10800354.
No constants are given. Whether binding was seen depends on the method and setting. In cells and extracts the contact can be indirect. Binding can be weak; no strength is given. Tags and fused reporters may be left off the sequences shown.

Biological target: T1, FLAG-NAT10 (pICE-FLAG-NAT10-siR-WT) in SCC-4 cells (UniProt Q9H0A0)
T1 sequence: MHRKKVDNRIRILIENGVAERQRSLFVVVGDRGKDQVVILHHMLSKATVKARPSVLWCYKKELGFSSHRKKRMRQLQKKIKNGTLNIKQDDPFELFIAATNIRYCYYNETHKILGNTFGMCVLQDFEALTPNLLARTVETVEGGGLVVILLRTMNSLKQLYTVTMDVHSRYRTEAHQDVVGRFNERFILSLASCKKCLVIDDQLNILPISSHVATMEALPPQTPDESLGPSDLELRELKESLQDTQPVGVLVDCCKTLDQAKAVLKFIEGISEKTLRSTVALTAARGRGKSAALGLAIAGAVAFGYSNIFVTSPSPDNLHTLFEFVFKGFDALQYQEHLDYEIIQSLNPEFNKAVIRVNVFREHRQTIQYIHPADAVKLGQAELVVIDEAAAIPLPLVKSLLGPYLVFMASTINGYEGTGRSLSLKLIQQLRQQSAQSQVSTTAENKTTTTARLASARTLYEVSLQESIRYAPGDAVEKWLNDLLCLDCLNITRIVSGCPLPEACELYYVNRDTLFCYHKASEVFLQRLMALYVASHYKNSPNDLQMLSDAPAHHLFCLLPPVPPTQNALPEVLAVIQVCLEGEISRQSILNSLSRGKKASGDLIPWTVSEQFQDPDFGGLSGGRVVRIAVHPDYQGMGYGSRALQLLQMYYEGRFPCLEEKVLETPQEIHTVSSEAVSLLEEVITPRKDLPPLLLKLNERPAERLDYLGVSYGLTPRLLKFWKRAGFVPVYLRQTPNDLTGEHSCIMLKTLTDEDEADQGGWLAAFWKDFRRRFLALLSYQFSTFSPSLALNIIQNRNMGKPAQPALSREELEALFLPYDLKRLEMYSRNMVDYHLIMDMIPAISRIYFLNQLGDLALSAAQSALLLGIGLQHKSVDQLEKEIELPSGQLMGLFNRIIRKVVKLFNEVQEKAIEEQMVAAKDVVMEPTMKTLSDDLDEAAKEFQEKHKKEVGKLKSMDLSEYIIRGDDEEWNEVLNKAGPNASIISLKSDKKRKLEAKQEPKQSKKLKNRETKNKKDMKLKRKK
Test: co-IP; SCC-4 cells co-transfected with pICE-FLAG-NAT10-siR-WT and pcDNA3.1-HA-RNPS1 variants; lysate after 24-48 h immunoprecipitated with anti-Flag antibody and Protein A/G magnetic beads, detected with anti-HA antibody

For “HA-tagged RNPS1 N-terminal region with the serine-rich domain (NT+S) (domain or fragment)”, which binding is on record?
The binding was “binds”.

For “HA-tagged RNPS1 without the arginine/serine/proline-rich domain (ΔRS/P) (domain or fragment)”, which binding is on record?
The binding was “binds”.
